In PubChem BioAssay AID1347075 (National Center for Advancing Translational Sciences (NCATS), 2019):
About 5,500 (1.4%) of roughly 400,000 compounds were called active. Inconclusive means that the source gave no clear call. Such entries were picked first, then a sample of the others. Calls come from the whole dose curve; as a rule, active = well fitted cell-killing curve with a large enough effect; inconclusive = small, poorly fitted or top-dose-only effect, or effect the other way; inactive = flat fitted curve, though single readings scatter. Potencies beside an inconclusive call are fits to weak or partial responses and may not hold up.

Test: qHTS assay for MDR1-selective chemotherapeutics: Primary screen using the parental adenocarcinoma cell KB-3-1; note: nearly all actives have a fitted effect of over 60% in size
Details: KB-3-1 viability, CellTiter-Glo ATP luminescence, 72 h; activity change, negative = cytotoxic: at 46.1 µM (top of the series)
Summary of the method: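 Multi-concentration cytotoxicity screen in KB-3-1 cells grown in DMEM lacking phenol red with 10% FBS. After 72 h at 37 °C with compound, ATP-dependent luminescence was recorded.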
% is set by controls: 0 for no effect and ±100 for the full control effect; potency is the fitted concentration of half-maximal effect.

| Compound | Potency | activity change, negative = cytotoxic |
| --- | --- | --- |
| COc1ccccc1NS(=O)(=O)c1cc(NC(=S)Nc2cc(C)cc(C)c2)ccc1Cl | inconclusive: 29.1 µM [cytotoxic, single point] |  |
| CNC(=S)N/N=C/c1cn(Cc2ccc(F)cc2)c2ccccc12 | inconclusive: 18.4 µM [cytotoxic, single point] |  |
| Cc1noc(C)c1CSCC(=O)Nc1cc(S(=O)(=O)N2CCCCC2)ccc1OC(C)C |  | inactive: -7.71% |
| CC(=O)Oc1ccc(Cn2c(C)c(C(=O)NCc3cccc(C(F)(F)F)c3)sc2=O)cc1 | active: 23.1 µM |  |
| COc1ccc(S(=O)(=O)N2CCC(C(=O)NC3CCCCC3)CC2)cc1OC |  | inactive: -0.763% |
| O=c1cc(CSc2nnc(Nc3ccccc3F)s2)nc2sccn12 | inconclusive: 16.4 µM [cytotoxic, single point] |  |
| COc1ccc2ccc3cccc[n+]3c2c1 | active: 13 µM |  |
| CC(=O)Nc1cccc(-c2cc(NC=O)c3ncc(-c4ccc(C(C)=O)cc4)n3c2)c1 |  | inactive: -1.99% |
| COc1cccc(NC(=S)N(CCc2c(C)[nH]c3ccccc23)Cc2cccs2)c1 | inconclusive: 20.6 µM [cytotoxic, single point] |  |
| CS(=O)(=O)Nc1ccc(-c2nc3ccccc3s2)cc1 | inconclusive: 29.1 µM [cytotoxic, single point] |  |
| COCCCn1c(SCc2cccc(OC)c2)nc2cc(OC)c(OC)cc2c1=N | inconclusive: 29.1 µM [cytotoxic, single point] |  |
| C=CCOc1ccc(CNCCc2ccc(S(N)(=O)=O)cc2)cc1 | inconclusive: 20.6 µM [rising, single point] |  |
| COc1ccc2[nH]c3c4c(ccc3c2c1)C(=O)C=CC4=O | active: 9.2 µM |  |
| CCCCn1c(NCc2ccc3c(c2)OCO3)nc2ccccc21 |  | inconclusive: -32% [cytotoxic] |
| CN(Cc1ccccc1)CC(O)CN(C)Cc1ccccc1 | inconclusive: 0.013 µM [cytotoxic, full curve] |  |
| COc1ccc(N(Cc2cc3ccc(C)cc3[nH]c2=O)S(=O)(=O)c2ccccc2)cc1 | inconclusive: 23.1 µM [cytotoxic, partial curve, poor fit] |  |
| Cc1c(C(=O)NCCSCc2ccc(Cl)cc2Cl)cccc1[N+](=O)[O-] | inconclusive: 29.1 µM [cytotoxic, single point] |  |
| O=S(=O)(c1ccc(NC(=S)NC23CC4CC(CC(C4)C2)C3)cc1)N1CCCCC1 | inconclusive: 32.6 µM [cytotoxic, partial curve, poor fit] |  |
| O=C(Nc1ccc(OCC(F)(F)C(F)F)c(C(F)(F)F)c1)c1ccccc1O | inconclusive: 20.6 µM [cytotoxic, single point] |  |
| CN1CCC(N(C)S(=O)(=O)c2ccc(NC(=O)COc3ccc(Cl)cc3)cc2)CC1 | inconclusive: 18.4 µM [cytotoxic, partial curve, poor fit] |  |
| O=C(CSCc1nc2ccccc2[nH]1)N1CCN(c2cccc(Cl)c2)CC1 | inconclusive: 20.6 µM [cytotoxic, single point] |  |
| CCN(CC)CCNC(=O)c1nn(-c2ccc(C)cc2)c(=O)c2c1c1ccccc1n2C |  | inactive: -5.22% |

| Compound | Potency | activity change, negative = cytotoxic |
| --- | --- | --- |
| COc1ccc(C(O)c2nc(-c3ccc(N(C)C)cc3)cs2)cc1 (stereo unspecified) | inconclusive: 29.1 µM [cytotoxic, single point] |  |
| CCc1ccc(-c2cc(C)no2)cc1S(=O)(=O)N1CCOc2ccccc21 |  | inactive: -27.1% |
| CCOc1ccc(S(=O)(=O)N2CCN(C(=S)NCc3ccccc3)CC2)cc1 |  | inactive: -32.2% |
| CNc1ccc(S(=O)(=O)NCC(=O)OCC(=O)Nc2cccc(Cl)c2Cl)cc1[N+](=O)[O-] | inconclusive: 18.4 µM [rising, single point] |  |
| CCCOc1c(Br)cc(C2C3=C(CCCC3=O)N(CC)C3=C2C(=O)CCC3)cc1OC |  | inactive: -33.2% |
| COc1cccc(NC(=O)CN(C)C(=O)c2ccccc2CCc2ccccc2)c1 | inconclusive: 29.1 µM [cytotoxic, single point] |  |
| CCOc1cc(/C=N/NC(=O)c2cc(C)n(-c3ccc(F)cc3)c2C)ccc1O |  | inconclusive: -3.13% |
| CCOc1ccc2nc(NCCCNC(=O)c3cc(OC)c(OC)c(OC)c3)c(C#N)cc2c1 |  | inactive: 16% |
| CCCNC(=S)Nc1ccc(Br)cc1 |  | inactive: -9.39% |
| CC(C)c1ccc(NC(=S)N2CCCC(c3ccc(F)cc3)=N2)cc1 |  | inactive: 2.25% |
| Cc1c(C(=O)NCc2cccnc2)oc2ccc(S(=O)(=O)N3CCCCCC3)cc12 | inconclusive: 23.1 µM [cytotoxic, single point] |  |
| C=CCn1c(COc2ccc(Cl)cc2)nnc1SCC(=O)Nc1ccc(S(N)(=O)=O)cc1 | inconclusive: 0.013 µM [rising, full curve] |  |
| O=C(c1cccc(F)c1)N1CCN(c2cccc(C(F)(F)F)c2)CC1 | inconclusive: 23.1 µM [cytotoxic, single point] |  |
| COc1ccc(CNC(=O)Nc2nc(C(N)Cc3ccc(Cl)cc3)cs2)cc1 (stereo unspecified) | inconclusive: 29.1 µM [cytotoxic, single point] |  |
| O=C(C1CCCN(S(=O)(=O)c2ccccc2)C1)N1CCN(c2ccc(F)cc2)CC1 (stereo unspecified) | inconclusive: 29.1 µM [cytotoxic, single point] |  |
| Cc1nc2c(OCc3cccc(Cl)c3)cccn2c1N(C)Cc1cccs1 | inconclusive: 25.9 µM [cytotoxic, single point] |  |
| CSc1ccc(/C=C/c2nc3ccccc3n2S(=O)(=O)c2ccc(Br)cc2)cc1 | inconclusive: 20.6 µM [cytotoxic, partial curve] |  |
| COc1cc(C)c(C(=O)Oc2cc(C)c(C(=O)O)c(O)c2C)c(OC)c1C | inconclusive: 29.1 µM [cytotoxic, single point] |  |
| COC(=O)c1ccc(Nc2cc(C)nc3ccccc23)cc1 | inconclusive: 29.1 µM [cytotoxic, single point] |  |
| CCOc1ccc(NC(=O)CCc2c(C)nc3nc(-c4cc(OC)cc(OC)c4)nn3c2C)cc1 | inconclusive: 20.6 µM [cytotoxic, partial curve] |  |
| COc1cccc(NC(=O)/C(C#N)=C/c2c(C)n(Cc3ccccc3)c3ccccc23)c1 | inconclusive: 29.1 µM [cytotoxic, single point] |  |

By substructure: those above containing a thiophene ring, fused or not.

| Compound | Potency | activity change, negative = cytotoxic |
| --- | --- | --- |
| COc1cccc(NC(=S)N(CCc2c(C)[nH]c3ccccc23)Cc2cccs2)c1 | inconclusive: 20.6 µM [cytotoxic, single point] |  |
| Cc1nc2c(OCc3cccc(Cl)c3)cccn2c1N(C)Cc1cccs1 | inconclusive: 25.9 µM [cytotoxic, single point] |  |

The results go on:

| Compound | Potency | activity change, negative = cytotoxic |
| --- | --- | --- |
| COc1cc(OC)c(NC(=O)CCc2nc(-c3ccc(C)cc3)no2)cc1Cl | inconclusive: 29.1 µM [cytotoxic, single point] |  |
| COc1ccc(-n2nnc(-c3nsc(NC(=O)c4cccc(C)c4)n3)c2C)cc1OC |  | inactive: 19.5% |
| CC1CCCN(C(c2cccs2)c2nnnn2Cc2ccccc2)C1 (stereo unspecified) | inconclusive: 20.6 µM [cytotoxic, single point] |  |
| Cc1nn(Cc2ccccc2Cl)c2sc(C(=O)NC(C)(C)C)cc12 | inconclusive: 29.1 µM [cytotoxic, single point] |  |
| Fc1ccc(C(NCCc2ccc(Cl)cc2)c2nnc(-c3ccccc3Cl)o2)cc1 (stereo unspecified) |  | inactive: -1.89% |
| O=C(NC(c1ccco1)c1cc(Cl)c2cccnc2c1O)c1ccccc1 (stereo unspecified) | inconclusive: 2.59 µM [cytotoxic, full curve] |  |
| Cc1ccc(Cc2c(-c3ccc(C)cc3)nc3ccc(Br)cn23)cc1 |  | inactive: -40.2% |
| CC(NC(=O)c1ccccc1)C(=O)OCC(=O)N1c2ccccc2Sc2ccccc21 (stereo unspecified) | inconclusive: 14.6 µM [rising, partial curve, poor fit] |  |
| CC(=O)Nc1ccc(/C=C2/Sc3ccccc3C2=O)cc1 | inconclusive: 0.0731 µM [rising, full curve] |  |
| CCCCCCCCCC[n+]1ccc(/C=C/c2c[nH]c3ccccc23)c2ccccc21 | active: 8.2 µM |  |
| COc1ccc(C(=O)NC(=S)Nc2ccc(Cc3ccncc3)cc2)cc1 | inconclusive: 29.1 µM [cytotoxic, single point] |  |
| CCNC(=O)N1c2ccc(OC)cc2C(C)=CC1(C)C | inconclusive: 1.46 µM [rising, partial curve, poor fit] |  |
| COc1ccccc1Nc1ncc2c(n1)CCN(Cc1cc(F)cc(F)c1)C2 |  | inactive: 8.53% |
| CCOc1cc(CNCCCN2CCOCC2)cc(Br)c1OCC(=O)Nc1cccc(C(F)(F)F)c1 | inconclusive: 18.4 µM [cytotoxic, single point] |  |
| COc1cccc(NC(=O)c2cc(Cl)nnc2Cl)c1 | inconclusive: 32.6 µM [cytotoxic, partial curve, poor fit] |  |
| COc1ccc2[nH]c3c(c2c1)CCN1C(=O)C(CC(=O)NCC24CC5CC(CC(C5)C2)C4)C[C@H](C(=O)N(C(C)C)C(C)C)[C@@]31C (stereo partly specified) | inconclusive: 32.6 µM [cytotoxic, single point] |  |
| Cc1ccc(NC(=O)CSc2nc3ccc(Nc4nc(N5CCOCC5)nc(N5CCOCC5)n4)cc3s2)cc1 | inconclusive: 25.9 µM [cytotoxic, single point] |  |
| O=C(N/N=C/C=C/c1ccc([N+](=O)[O-])cc1)C1COc2ccccc2O1 (stereo unspecified) |  | inactive: 9.26% |
| Nc1c(C(=O)NCc2ccco2)c2nc3ccccc3nc2n1CCc1ccccc1F | inconclusive: 29.1 µM [cytotoxic, single point] |  |
| CC(C)(O)[C@@H]1CC[C@@](C)(C2CC[C@]3(C)C2[C@H](O)CC2[C@@]4(C)CC[C@H](O)C(C)(C)C4[C@@H](O[C@H]4O[C@@H](CO)[C@H](O)[C@@H](O)[C@@H]4O[C@@H]4O[C@H](CO)[C@@H](O)[C@H](O)[C@H]4O)C[C@]23C)O1 (stereo in doubt) |  | inactive: 0% |
| CCN(CC)c1ccc(NC(=O)c2cc(OC)cc(OC)c2)c(C)c1 | active: 0.92 µM |  |
| N/C(=C\C(=O)c1cc(Cl)ccc1O)C(Cl)(Cl)Cl | inconclusive: 5.8 µM [cytotoxic, full curve, poor fit] |  |
